# In publication PMC5571105:
# Numbering of substitutions follows the chain as printed. No constants are given. Whether binding was seen depends on the method and setting. For part of these data: Binding calls can cover weak binding; strength is not graded here. For part of these data: Binding seen in cells or lysates may run through a third protein.
# B1: OsRR22 (protein, UniProt Q5SML5 1-696)
# chain: MLLGALRMEERKGLMGRERDQFPVGMRVLAVDDDPVCLKVLETLLRRCQYHVTSTNQAITALKLLRENRDMFDLVISDVHMPDMDGFKLLELVGLEMDLPVIMLSVNGETKTVMKGITHGACDYLLKPVRIEELRNIWQHVVRRKFGNRERNNLDFSKECNKPQSADTDHGPYQPTCGSSDQNGRSSRKRKELHGEDDDEGDDNDYQENDEPSAAKKPRVVWSVELHRKFVAAVNQLGIDKAVPKRILELMNVEKLTRENVASHLQKYRLYLKRLGAVASQQASIVAAFGGRDPSFLHIGAFEGLQSYQPFAPSAALPSFNPHGLLTRTSAAAAFGLQELAAPSSTIQTSTGNVTVGHCLEENQQANLAQGLTAAIGQPQLQQNWIHQEGNGLSDVFSGSSLTNTLSSTLQRVPSSSLPPQELLECKQAKVSMPPSIRIPPSSSALLERTLGVSTNLGDSSISQQGALPIDGGFSADRLPLHSSFDGAVATKLDTSLAASQREIGQQGKFSVSMLVSPSDNLALAKNAKTGASSSGSTIILPLDTARHSDYLQFGGASNSLQKMDGQKQDHIQSSNIIWSSMPSTQLPSDTQIHNTQNQRLDSGSFNHNIGAHLADQTNASASILPQMKFDTRISEEKMKQKNTYDLGSSKLQGGFNSSGCNFDGLLNSIIKVEKDDLPFMDNELGCDLFPLGACI
# B2: OsRR3 (protein, UniProt Q6K9T0 1-131)
# chain: MSTKTVPEPEPHVLAVDDSIVDRTVISRLLRSSKYRVTTVDSGKRALEVLSLDRNVHMIITDYCMPEMTGFDLLKRVKESAELKEIPVVLMSSENSPTRIRRCLEEGAEDFLIKPVRPSDVSRLCNRVIMK
# B3: nEYFP-OsRR3 (protein, UniProt Q6K9T0 1-131)
# chain: B2 chain
# B4: OsRR2 (protein, UniProt Q6YVX7 1-252)
# chain: MGAEAVRVLVVDDSPVDRRVVELLLRAHCGGGGGAAAGEAAPFHVTAVDSGKKAMELLGRRRGDRDHLTPSSPAAAAAANDQAIDIVLTDYCMPEMTGYDLLKAIKALGSPNPIPVVVMSSENEPQRISRCLTAGAEDFILKPLKMNDVQRLRKCSGATRPKSAVAGDDDRCCNTAKKAAAAAAATPEQQQQQQRSSHLAGLAMVMNASSFEVSHYFQLIFKLILLAYAVLCLSQLLHRWSNGSSLLSLWCA
# B5: OsRR9 (protein, UniProt Q2RAP3 1-201)
# chain: MAVAIEAPFHVLAVDDSLPDRKLIERLLKTSSFQVTTVDSGSKALEFLGLHDHEDSPISTQSDQQEVAVNLIITDYCMPGMTGYDLLKKIKESSYLRDIPVVIMSSDNIPSRINRCLEEGADEFFLKPVRLSDMSKLKPHILKSRCKEHYQQEQNLQSNSESNNSSNPTSENSSSSTSSNSHKRKAVDEEILPHTIRPRHS
# B6: OsRR10 (protein, UniProt Q2QXY3 1-201)
# chain: B5 chain with A68G, N155H, S179T
# How the values were obtained:
# [1] = target: T1, OsRR3 (rice) (UniProt Q6K9T0); test: two-hybrid; S. cerevisiae AH109; bait in pGBD-C1 (GAL4 binding domain; written as target), prey in pGAD-C1 (GAL4 activation domain; written as binder); serial dilutions spotted on triple drop-out medium with 5 mM 3-AT (HIS3) and quadruple drop-out medium (ADE2), 30 °C; growth on quadruple drop-out shows strong interaction
# T1 sequence: B2 chain
# [2] = target: T2, OsRR10 (rice) (UniProt Q2QXY3); test: as above
# T2 sequence: B5 chain with A68G, N155H, S179T
# [3] = target: T3, OsRR2 (rice) (UniProt Q6YVX7); test: as above
# T3 sequence: B4 chain
# [4] = target: T4, OsRR21 (rice) (UniProt Q8H7S7); test: as above
# T4 sequence: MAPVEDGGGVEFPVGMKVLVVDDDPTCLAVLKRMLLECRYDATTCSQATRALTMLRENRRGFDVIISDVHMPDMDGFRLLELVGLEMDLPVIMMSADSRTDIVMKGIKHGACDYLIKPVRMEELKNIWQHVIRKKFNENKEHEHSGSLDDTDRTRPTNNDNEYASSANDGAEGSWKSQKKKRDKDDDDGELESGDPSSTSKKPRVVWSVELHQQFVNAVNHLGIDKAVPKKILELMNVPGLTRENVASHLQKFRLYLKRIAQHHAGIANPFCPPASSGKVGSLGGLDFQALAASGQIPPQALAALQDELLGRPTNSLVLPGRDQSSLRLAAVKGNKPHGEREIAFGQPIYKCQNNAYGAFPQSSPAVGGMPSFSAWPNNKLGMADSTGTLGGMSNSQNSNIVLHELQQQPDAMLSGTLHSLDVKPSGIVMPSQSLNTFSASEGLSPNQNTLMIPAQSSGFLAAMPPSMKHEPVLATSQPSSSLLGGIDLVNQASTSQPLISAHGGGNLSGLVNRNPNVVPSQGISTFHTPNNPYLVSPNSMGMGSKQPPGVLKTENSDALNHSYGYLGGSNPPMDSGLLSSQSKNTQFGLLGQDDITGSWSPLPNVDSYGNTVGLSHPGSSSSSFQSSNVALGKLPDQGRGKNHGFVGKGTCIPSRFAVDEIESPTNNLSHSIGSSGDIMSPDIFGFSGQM
# [5] = target: T5, OsRR9 (rice) (UniProt Q2RAP3); test: as above
# T5 sequence: B5 chain
# [6] = target: OsPHP1 (rice); test: as above
# [7] = target: OsPHP3 (rice); test: as above
# [8] = target: OsPHP2 (rice); test: as above
# [9] = target: OsPHP1 (rice); test: two-hybrid; β-galactosidase filter lift assay (LacZ reporter) of the co-transformed yeast colonies, X-gal as substrate, 30 °C in the dark
# [10] = target: OsPHP3 (rice); test: as above
# [11] = target: OsPHP2 (rice); test: as above
# [12] = target: OsPHP1 (BiFC fusion) (rice); test: split reporter; BiFC in onion epidermal peel cells, nEYFP and cEYFP fusions under the 2XCaMV35S promoter co-transformed by particle bombardment; YFP seen by confocal microscopy 12 hours post transfection; repeated three times
Molecule,binding [1],binding [2],binding [3],binding [4],binding [5],binding [7],binding [8],also measured
OsAHP1 (rice),no binding,no binding,no binding,no binding,no binding,,,
OsPHP2 (rice),no binding,no binding,no binding,no binding,no binding,,,
OsPHP3 (rice),no binding,no binding,no binding,no binding,no binding,,,
OsAHP2 (rice),no binding,no binding,no binding,no binding,no binding,,,
OsPHP1 (rice),,no binding,no binding,no binding,no binding,,,
OsRR27 (rice),no binding,no binding,no binding,,no binding,,,
B1,,,,,,binds,binds,binding [6]: binds; binding [9]: binds; binding [10]: binds; binding [11]: binds
B2,,,,,,no binding,no binding,binding [6]: binds weakly; binding [9]: binds
B3,,,,,,,,binding [12]: binds
B4,,,,,,no binding,no binding,
B5,,,,,,no binding,no binding,
B6,,,,,,no binding,no binding,
